The supplement of paper PMC4604168 (melanoma cell lines)
Some of the results follow. Repeats are few or missing, and single values can be far off.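 The apoptosis fraction was the count of cleaved-PARP antibody-stained nuclei relative to all DNA-stained nuclei, imaged in 1,536-well plates. Screening doses were set so most cells survived, and baseline and induced cleaved-PARP levels vary greatly across cell lines.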

Assays:
Assay in all cases: cleaved PARP positive nuclei fraction relative to DMSO control; melanoma cells; higher = more apoptosis
Details in all cases: library dose: low library concentration; 72 h
501Mel = system: 501Mel
A101D = system: A101D
A2058 = system: A2058
A375 = system: A375
C32 = system: C32
CBRC013 = system: CBRC013 (line from a melanoma biopsy)
CBRC014 = system: CBRC014 (line from a melanoma biopsy)
CBRC016 = system: CBRC016 (line from a melanoma biopsy)
CBRC017 = system: CBRC017 (line from a melanoma biopsy)

Row | Compound | cleaved PARP positive nuclei fraction (501Mel) [%] | cleaved PARP positive nuclei fraction (A101D) [%] | cleaved PARP positive nuclei fraction (A2058) [%] | cleaved PARP positive nuclei fraction (A375) [%] | cleaved PARP positive nuclei fraction (C32) [%] | cleaved PARP positive nuclei fraction (CBRC013) [%] | cleaved PARP positive nuclei fraction (CBRC014) [%] | cleaved PARP positive nuclei fraction (CBRC016) [%] | cleaved PARP positive nuclei fraction (CBRC017) [%]
1 | COc1ccc(COc2ccc(Cc3cnc(N)nc3N)cc2OC)cc1 + Oc1nc(-c2ccc(C(F)(F)F)cc2)nc2c1CSCC2 [XAV939] (first compound 1 µM, partner dose 2 µM) | 151 | 317 | 166 | 130 | 63.9 | 40 | 106 | 76.2 | 86.1
2 | O=C1NC(=O)/C(=C/c2ccc(-c3ccc(F)cc3O)o2)S1 + COc1cc(N2CCC(N3CCN(C)CC3)CC2)ccc1Nc1ncc(Cl)c(Nc2ccccc2S(=O)(=O)C(C)C)n1 [NVP-TAE684] (first compound 1 µM, partner dose 0.08 µM) | 91.1 | 99.4 | 109 | 182 | 110 | 216 | 90.5 | 73.3 | 73.3
3 | COc1ccc2c(c1)CCC1C2CCC2(C)C(NCCCCCCN3C(=O)C=CC3=O)CCC12 (configuration not stated) + COc1cc2ncnc(Nc3ccc(Oc4ccccc4)cc3)c2cc1OC [SrcI1] (first compound 0.4 µM, partner dose 2 µM) | 77.3 | 106 | 150 | 180 | 35.3 | 103 | 107 | 86.4 | 167
4 | O=C(O)c1ccc(-c2c[nH]c3ncc(-c4ccccc4)cc23)cc1C1CCCC1 + O=S(=O)(c1ccccc1)N(CC(F)(F)F)c1ccc(C(O)(C(F)(F)F)C(F)(F)F)cc1 [T0901317] (first compound 0.16 µM, partner dose 1.4 µM) | 86.1 | 225 | 107 | 122 | 94.5 | 39.1 | 229 | 150 | 90.5
5 | NCC(=O)Nc1ccc(-n2nc(C(F)(F)F)cc2-c2ccc3c(ccc4ccccc43)c2)cc1 + O=S(=O)(c1ccccc1)N(CC(F)(F)F)c1ccc(C(O)(C(F)(F)F)C(F)(F)F)cc1 [T0901317] (first compound 1 µM, partner dose 1.4 µM) | 697 | 84.7 | 45.5 | 1470 | 102 | 220 | 101 | 108 | 106
6 | Oc1nc(-c2ccc(C(F)(F)F)cc2)nc2c1CSCC2 + CC(C)CCN1c2nc(Nc3cc(F)c(O)c(F)c3)ncc2N(C)C(=O)C1C [BID1870] (first compound 2 µM, partner dose 0.2 µM) | 92.2 | 177 | 156 | 27.1 | 136 | 132 | 91.4 | 43.3 | 77.9
7 | CN(C)S(=O)(=O)c1ccc2c(c1)/C(=C/c1cc3c([nH]1)CCCC3)C(=O)N2 + COc1ccc(-c2ccc3c(N4CCOCC4)nc(N4C[C@@H](C)O[C@@H](C)C4)nc3n2)cc1CO [KU0063794] (first compound 0.4 µM, partner dose 0.02 µM) | 175 | 187 | 95.6 | 67.6 | 68.7 | 70.8 | 103 | 21.9 | 101
8 | COc1cc2c(Oc3ccc4[nH]c(C)cc4c3F)ncnc2cc1OCCCN1CCCC1 [cediranib] + COc1cc2ncnc(Nc3ccc(Oc4ccccc4)cc3)c2cc1OC [SrcI1] (first compound 0.4 µM, partner dose 2 µM) | 90.5 | 193 | 127 | 47.8 | 42.7 | 147 | 92.6 | 44.8 | 84.3
9 | N#Cc1c(O)c2c(-c3ccc(-c4ccccc4O)cc3)csc2[nH]c1=O + Oc1nc(-c2ccc(C(F)(F)F)cc2)nc2c1CSCC2 [XAV939] (first compound 2 µM, partner dose 2 µM) | 81.9 | 39.8 | 220 | 114 | 136 | 169 | 78.5 | 63.1 | 91.6
10 | CN(C)S(=O)(=O)c1ccc2c(c1)/C(=C/c1cc3c([nH]1)CCCC3)C(=O)N2 + Cn1cc(/C=C2\C(=O)Nc3cccnc32)c2ccccc21 [GW441756] (first compound 0.4 µM, partner dose 0.4 µM) | 80.4 | 149 | 64.3 | 187 | 105 | 112 | 112 | 77.1 | 84.6
11 | c1cc(-c2cnn3cc(-c4ccc(OCCN5CCCCC5)cc4)cnc23)ccn1 [Dorsomorphin] + O=c1cc(-c2cccc3c2Sc2ccccc2S3)oc(N2CCOCC2)c1 [KU55933] (first compound 0.4 µM, partner dose 1 µM) | 85.1 | 145 | 119 | 165 | 110 | 59.8 | 113 | 40 | 80.7
12 | CN(C)S(=O)(=O)c1ccc2c(c1)/C(=C/c1cc3c([nH]1)CCCC3)C(=O)N2 + COc1cc2ncnc(Nc3ccc(Oc4ccccc4)cc3)c2cc1OC [SrcI1] (first compound 0.4 µM, partner dose 2 µM) | 63.4 | 127 | 189 | 218 | 124 | 146 | 121 | 108 | 152
13 | COc1ccc(-c2ccc3c(N4CCOCC4)nc(N4C[C@@H](C)O[C@@H](C)C4)nc3n2)cc1CO + COc1ccc(COc2ccc(Cc3cnc(N)nc3N)cc2OC)cc1 [GW2580] (first compound 0.02 µM, partner dose 1 µM) | 68.1 | 114 | 132 | 78.7 | 127 | 62.3 | 180 | 43.6 | 81.8
14 | N#Cc1c(O)c2c(-c3ccc(-c4ccccc4O)cc3)csc2[nH]c1=O + CC(C)CCN1c2nc(Nc3cc(F)c(O)c(F)c3)ncc2N(C)C(=O)C1C [BID1870] (first compound 2 µM, partner dose 0.2 µM) | 42.3 | 125 | 171 | 178 | 227 | 41 | 110 | 66.9 | 85
15 | O=C(Nc1ccccc1)c1cc([N+](=O)[O-])ccc1Cl + c1cc(-c2cnn3cc(-c4ccc(OCCN5CCCCC5)cc4)cnc23)ccn1 [Dorsomorphin] (first compound 2 µM, partner dose 0.4 µM) | 59 | 172 | 161 | 37.3 | 106 | 98.3 | 115 | 89.4 | 92.7
16 | COc1ccc(-c2ccc3c(N4CCOCC4)nc(N4C[C@@H](C)O[C@@H](C)C4)nc3n2)cc1CO + O=c1cc(-c2cccc3c2Sc2ccccc2S3)oc(N2CCOCC2)c1 [KU55933] (first compound 0.02 µM, partner dose 1 µM) | 58.8 | 122 | 98.7 | 88 | 96.3 | 138 | 79 | 83.1 | 65.5
17 | CN(C)S(=O)(=O)c1ccc2c(c1)/C(=C/c1cc3c([nH]1)CCCC3)C(=O)N2 + N#Cc1c(O)c2c(-c3ccc(-c4ccccc4O)cc3)csc2[nH]c1=O [A769662] (first compound 0.4 µM, partner dose 2 µM) | 50.6 | 49 | 127 | 36.3 | 153 | 39.5 | 105 | 112 | 199
18 | COc1cc2c(Oc3ccc4[nH]c(C)cc4c3F)ncnc2cc1OCCCN1CCCC1 [cediranib] + CCc1ccc(CCOc2ccc(CC3SC(=O)NC3=O)cc2)nc1 [pioglitazone] (first compound 0.4 µM, partner dose 2 µM) | 82 | 54.3 | 36.2 | 130 | 75.6 | 175 | 109 | 60 | 91.8
19 | CCc1ccc(CCOc2ccc(CC3SC(=O)NC3=O)cc2)nc1 (configuration not stated) [pioglitazone] + COc1cc2ncnc(Nc3ccc(Oc4ccccc4)cc3)c2cc1OC [SrcI1] (first compound 2 µM, partner dose 2 µM) | 74.6 | 125 | 145 | 167 | 40.2 | 26.5 | 79.3 | 111 | 75
20 | COc1ccc(COc2ccc(Cc3cnc(N)nc3N)cc2OC)cc1 + CCCCCCCCCCCC1=C(O)C(=O)C=C(O)C1=O [Embelin] (first compound 1 µM, partner dose 1.2 µM) | 73.9 | 115 | 54.9 | 57 | 108 | 263 | 158 | 97.7 | 76.4
21 | Oc1nc(-c2ccc(C(F)(F)F)cc2)nc2c1CSCC2 + COc1cc(N2CCC(N3CCN(C)CC3)CC2)ccc1Nc1ncc(Cl)c(Nc2ccccc2S(=O)(=O)C(C)C)n1 [NVP-TAE684] (first compound 2 µM, partner dose 0.08 µM) | 72.5 | 128 | 405 | 52.4 | 44.4 | 546 | 80.3 | 58.8 | 43.3
22 | CCc1ccc(CCOc2ccc(CC3SC(=O)NC3=O)cc2)nc1 (configuration not stated) [pioglitazone] + COc1ccc2c(c1)CCC1C2CCC2(C)C(NCCCCCCN3C(=O)C=CC3=O)CCC12 [U73122] (first compound 2 µM, partner dose 0.4 µM) | 83.5 | 64.4 | 47.5 | 197 | 185 | 132 | 102 | 68.7 | 118
23 | O=C(Nc1ccccc1)c1cc([N+](=O)[O-])ccc1Cl + CCCCCCCCCCCC1=C(O)C(=O)C=C(O)C1=O [Embelin] (first compound 2 µM, partner dose 1.2 µM) | 75.8 | 47 | 15.2 | 103 | 36.9 | 152 | 82.5 | 96.2 | 92.1

Some of the entries so far, tab-delimited:
Row	Compound	cleaved PARP positive nuclei fraction (501Mel) [%]	cleaved PARP positive nuclei fraction (A101D) [%]	cleaved PARP positive nuclei fraction (A2058) [%]	cleaved PARP positive nuclei fraction (A375) [%]	cleaved PARP positive nuclei fraction (C32) [%]	cleaved PARP positive nuclei fraction (CBRC013) [%]	cleaved PARP positive nuclei fraction (CBRC014) [%]	cleaved PARP positive nuclei fraction (CBRC016) [%]	cleaved PARP positive nuclei fraction (CBRC017) [%]
5	NCC(=O)Nc1ccc(-n2nc(C(F)(F)F)cc2-c2ccc3c(ccc4ccccc43)c2)cc1 + O=S(=O)(c1ccccc1)N(CC(F)(F)F)c1ccc(C(O)(C(F)(F)F)C(F)(F)F)cc1 [T0901317] (first compound 1 µM, partner dose 1.4 µM)	697	84.7	45.5	1470	102	220	101	108	106
6	Oc1nc(-c2ccc(C(F)(F)F)cc2)nc2c1CSCC2 + CC(C)CCN1c2nc(Nc3cc(F)c(O)c(F)c3)ncc2N(C)C(=O)C1C [BID1870] (first compound 2 µM, partner dose 0.2 µM)	92.2	177	156	27.1	136	132	91.4	43.3	77.9
7	CN(C)S(=O)(=O)c1ccc2c(c1)/C(=C/c1cc3c([nH]1)CCCC3)C(=O)N2 + COc1ccc(-c2ccc3c(N4CCOCC4)nc(N4C[C@@H](C)O[C@@H](C)C4)nc3n2)cc1CO [KU0063794] (first compound 0.4 µM, partner dose 0.02 µM)	175	187	95.6	67.6	68.7	70.8	103	21.9	101
8	COc1cc2c(Oc3ccc4[nH]c(C)cc4c3F)ncnc2cc1OCCCN1CCCC1 [cediranib] + COc1cc2ncnc(Nc3ccc(Oc4ccccc4)cc3)c2cc1OC [SrcI1] (first compound 0.4 µM, partner dose 2 µM)	90.5	193	127	47.8	42.7	147	92.6	44.8	84.3
9	N#Cc1c(O)c2c(-c3ccc(-c4ccccc4O)cc3)csc2[nH]c1=O + Oc1nc(-c2ccc(C(F)(F)F)cc2)nc2c1CSCC2 [XAV939] (first compound 2 µM, partner dose 2 µM)	81.9	39.8	220	114	136	169	78.5	63.1	91.6
10	CN(C)S(=O)(=O)c1ccc2c(c1)/C(=C/c1cc3c([nH]1)CCCC3)C(=O)N2 + Cn1cc(/C=C2\C(=O)Nc3cccnc32)c2ccccc21 [GW441756] (first compound 0.4 µM, partner dose 0.4 µM)	80.4	149	64.3	187	105	112	112	77.1	84.6
11	c1cc(-c2cnn3cc(-c4ccc(OCCN5CCCCC5)cc4)cnc23)ccn1 [Dorsomorphin] + O=c1cc(-c2cccc3c2Sc2ccccc2S3)oc(N2CCOCC2)c1 [KU55933] (first compound 0.4 µM, partner dose 1 µM)	85.1	145	119	165	110	59.8	113	40	80.7
